These are yes or no findings as the source states them, for the method shown. In cells and extracts the contact can be indirect. Some entries that bind do so weakly or less than the wild type.
Columns and labels:
[1] = target: sacsin (human (endogenous in SH-SY5Y)) (UniProt Q9NZJ4); test: co-IP; sacsin IP (anti-sacsin antibody on Dynabeads) from SH-SY5Y lysate (5 mM EDTA, 0.1% Triton X-100 in PBS), overnight at 4°C; IgG or SACS-/- cells as control; blot with anti-myosin Va or anti-plectin antibody
[2] = target: T1, neurofilament light subunit (NFL) (human (endogenous in SH-SY5Y)) (UniProt P07196); test: co-IP; NFL IP (anti-NFL antibody on Dynabeads, IgG as control) from SH-SY5Y cells; Triton-insoluble pellet resuspended in TBS and 10% SDS, NF cytoskeletal fraction extracted by 1:4 dilution in NF extraction buffer; blot with anti-sacsin antibody
T1 sequence: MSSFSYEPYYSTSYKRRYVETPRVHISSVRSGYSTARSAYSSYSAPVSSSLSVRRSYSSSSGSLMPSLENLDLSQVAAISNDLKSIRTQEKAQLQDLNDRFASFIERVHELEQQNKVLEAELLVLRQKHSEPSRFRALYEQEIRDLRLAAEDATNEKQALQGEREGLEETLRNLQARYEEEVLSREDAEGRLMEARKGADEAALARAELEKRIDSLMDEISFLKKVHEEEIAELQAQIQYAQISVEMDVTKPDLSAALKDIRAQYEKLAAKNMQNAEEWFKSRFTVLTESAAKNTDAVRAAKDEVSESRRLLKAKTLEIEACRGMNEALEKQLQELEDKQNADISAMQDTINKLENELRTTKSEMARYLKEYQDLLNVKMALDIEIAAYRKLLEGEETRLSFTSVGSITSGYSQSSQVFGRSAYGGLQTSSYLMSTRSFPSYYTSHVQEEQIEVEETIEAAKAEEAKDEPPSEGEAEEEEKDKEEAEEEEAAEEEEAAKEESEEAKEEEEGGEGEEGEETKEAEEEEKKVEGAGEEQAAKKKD

Chains of the proteins cited; added tags and fusions are not shown.
UniProt Q9NZJ4: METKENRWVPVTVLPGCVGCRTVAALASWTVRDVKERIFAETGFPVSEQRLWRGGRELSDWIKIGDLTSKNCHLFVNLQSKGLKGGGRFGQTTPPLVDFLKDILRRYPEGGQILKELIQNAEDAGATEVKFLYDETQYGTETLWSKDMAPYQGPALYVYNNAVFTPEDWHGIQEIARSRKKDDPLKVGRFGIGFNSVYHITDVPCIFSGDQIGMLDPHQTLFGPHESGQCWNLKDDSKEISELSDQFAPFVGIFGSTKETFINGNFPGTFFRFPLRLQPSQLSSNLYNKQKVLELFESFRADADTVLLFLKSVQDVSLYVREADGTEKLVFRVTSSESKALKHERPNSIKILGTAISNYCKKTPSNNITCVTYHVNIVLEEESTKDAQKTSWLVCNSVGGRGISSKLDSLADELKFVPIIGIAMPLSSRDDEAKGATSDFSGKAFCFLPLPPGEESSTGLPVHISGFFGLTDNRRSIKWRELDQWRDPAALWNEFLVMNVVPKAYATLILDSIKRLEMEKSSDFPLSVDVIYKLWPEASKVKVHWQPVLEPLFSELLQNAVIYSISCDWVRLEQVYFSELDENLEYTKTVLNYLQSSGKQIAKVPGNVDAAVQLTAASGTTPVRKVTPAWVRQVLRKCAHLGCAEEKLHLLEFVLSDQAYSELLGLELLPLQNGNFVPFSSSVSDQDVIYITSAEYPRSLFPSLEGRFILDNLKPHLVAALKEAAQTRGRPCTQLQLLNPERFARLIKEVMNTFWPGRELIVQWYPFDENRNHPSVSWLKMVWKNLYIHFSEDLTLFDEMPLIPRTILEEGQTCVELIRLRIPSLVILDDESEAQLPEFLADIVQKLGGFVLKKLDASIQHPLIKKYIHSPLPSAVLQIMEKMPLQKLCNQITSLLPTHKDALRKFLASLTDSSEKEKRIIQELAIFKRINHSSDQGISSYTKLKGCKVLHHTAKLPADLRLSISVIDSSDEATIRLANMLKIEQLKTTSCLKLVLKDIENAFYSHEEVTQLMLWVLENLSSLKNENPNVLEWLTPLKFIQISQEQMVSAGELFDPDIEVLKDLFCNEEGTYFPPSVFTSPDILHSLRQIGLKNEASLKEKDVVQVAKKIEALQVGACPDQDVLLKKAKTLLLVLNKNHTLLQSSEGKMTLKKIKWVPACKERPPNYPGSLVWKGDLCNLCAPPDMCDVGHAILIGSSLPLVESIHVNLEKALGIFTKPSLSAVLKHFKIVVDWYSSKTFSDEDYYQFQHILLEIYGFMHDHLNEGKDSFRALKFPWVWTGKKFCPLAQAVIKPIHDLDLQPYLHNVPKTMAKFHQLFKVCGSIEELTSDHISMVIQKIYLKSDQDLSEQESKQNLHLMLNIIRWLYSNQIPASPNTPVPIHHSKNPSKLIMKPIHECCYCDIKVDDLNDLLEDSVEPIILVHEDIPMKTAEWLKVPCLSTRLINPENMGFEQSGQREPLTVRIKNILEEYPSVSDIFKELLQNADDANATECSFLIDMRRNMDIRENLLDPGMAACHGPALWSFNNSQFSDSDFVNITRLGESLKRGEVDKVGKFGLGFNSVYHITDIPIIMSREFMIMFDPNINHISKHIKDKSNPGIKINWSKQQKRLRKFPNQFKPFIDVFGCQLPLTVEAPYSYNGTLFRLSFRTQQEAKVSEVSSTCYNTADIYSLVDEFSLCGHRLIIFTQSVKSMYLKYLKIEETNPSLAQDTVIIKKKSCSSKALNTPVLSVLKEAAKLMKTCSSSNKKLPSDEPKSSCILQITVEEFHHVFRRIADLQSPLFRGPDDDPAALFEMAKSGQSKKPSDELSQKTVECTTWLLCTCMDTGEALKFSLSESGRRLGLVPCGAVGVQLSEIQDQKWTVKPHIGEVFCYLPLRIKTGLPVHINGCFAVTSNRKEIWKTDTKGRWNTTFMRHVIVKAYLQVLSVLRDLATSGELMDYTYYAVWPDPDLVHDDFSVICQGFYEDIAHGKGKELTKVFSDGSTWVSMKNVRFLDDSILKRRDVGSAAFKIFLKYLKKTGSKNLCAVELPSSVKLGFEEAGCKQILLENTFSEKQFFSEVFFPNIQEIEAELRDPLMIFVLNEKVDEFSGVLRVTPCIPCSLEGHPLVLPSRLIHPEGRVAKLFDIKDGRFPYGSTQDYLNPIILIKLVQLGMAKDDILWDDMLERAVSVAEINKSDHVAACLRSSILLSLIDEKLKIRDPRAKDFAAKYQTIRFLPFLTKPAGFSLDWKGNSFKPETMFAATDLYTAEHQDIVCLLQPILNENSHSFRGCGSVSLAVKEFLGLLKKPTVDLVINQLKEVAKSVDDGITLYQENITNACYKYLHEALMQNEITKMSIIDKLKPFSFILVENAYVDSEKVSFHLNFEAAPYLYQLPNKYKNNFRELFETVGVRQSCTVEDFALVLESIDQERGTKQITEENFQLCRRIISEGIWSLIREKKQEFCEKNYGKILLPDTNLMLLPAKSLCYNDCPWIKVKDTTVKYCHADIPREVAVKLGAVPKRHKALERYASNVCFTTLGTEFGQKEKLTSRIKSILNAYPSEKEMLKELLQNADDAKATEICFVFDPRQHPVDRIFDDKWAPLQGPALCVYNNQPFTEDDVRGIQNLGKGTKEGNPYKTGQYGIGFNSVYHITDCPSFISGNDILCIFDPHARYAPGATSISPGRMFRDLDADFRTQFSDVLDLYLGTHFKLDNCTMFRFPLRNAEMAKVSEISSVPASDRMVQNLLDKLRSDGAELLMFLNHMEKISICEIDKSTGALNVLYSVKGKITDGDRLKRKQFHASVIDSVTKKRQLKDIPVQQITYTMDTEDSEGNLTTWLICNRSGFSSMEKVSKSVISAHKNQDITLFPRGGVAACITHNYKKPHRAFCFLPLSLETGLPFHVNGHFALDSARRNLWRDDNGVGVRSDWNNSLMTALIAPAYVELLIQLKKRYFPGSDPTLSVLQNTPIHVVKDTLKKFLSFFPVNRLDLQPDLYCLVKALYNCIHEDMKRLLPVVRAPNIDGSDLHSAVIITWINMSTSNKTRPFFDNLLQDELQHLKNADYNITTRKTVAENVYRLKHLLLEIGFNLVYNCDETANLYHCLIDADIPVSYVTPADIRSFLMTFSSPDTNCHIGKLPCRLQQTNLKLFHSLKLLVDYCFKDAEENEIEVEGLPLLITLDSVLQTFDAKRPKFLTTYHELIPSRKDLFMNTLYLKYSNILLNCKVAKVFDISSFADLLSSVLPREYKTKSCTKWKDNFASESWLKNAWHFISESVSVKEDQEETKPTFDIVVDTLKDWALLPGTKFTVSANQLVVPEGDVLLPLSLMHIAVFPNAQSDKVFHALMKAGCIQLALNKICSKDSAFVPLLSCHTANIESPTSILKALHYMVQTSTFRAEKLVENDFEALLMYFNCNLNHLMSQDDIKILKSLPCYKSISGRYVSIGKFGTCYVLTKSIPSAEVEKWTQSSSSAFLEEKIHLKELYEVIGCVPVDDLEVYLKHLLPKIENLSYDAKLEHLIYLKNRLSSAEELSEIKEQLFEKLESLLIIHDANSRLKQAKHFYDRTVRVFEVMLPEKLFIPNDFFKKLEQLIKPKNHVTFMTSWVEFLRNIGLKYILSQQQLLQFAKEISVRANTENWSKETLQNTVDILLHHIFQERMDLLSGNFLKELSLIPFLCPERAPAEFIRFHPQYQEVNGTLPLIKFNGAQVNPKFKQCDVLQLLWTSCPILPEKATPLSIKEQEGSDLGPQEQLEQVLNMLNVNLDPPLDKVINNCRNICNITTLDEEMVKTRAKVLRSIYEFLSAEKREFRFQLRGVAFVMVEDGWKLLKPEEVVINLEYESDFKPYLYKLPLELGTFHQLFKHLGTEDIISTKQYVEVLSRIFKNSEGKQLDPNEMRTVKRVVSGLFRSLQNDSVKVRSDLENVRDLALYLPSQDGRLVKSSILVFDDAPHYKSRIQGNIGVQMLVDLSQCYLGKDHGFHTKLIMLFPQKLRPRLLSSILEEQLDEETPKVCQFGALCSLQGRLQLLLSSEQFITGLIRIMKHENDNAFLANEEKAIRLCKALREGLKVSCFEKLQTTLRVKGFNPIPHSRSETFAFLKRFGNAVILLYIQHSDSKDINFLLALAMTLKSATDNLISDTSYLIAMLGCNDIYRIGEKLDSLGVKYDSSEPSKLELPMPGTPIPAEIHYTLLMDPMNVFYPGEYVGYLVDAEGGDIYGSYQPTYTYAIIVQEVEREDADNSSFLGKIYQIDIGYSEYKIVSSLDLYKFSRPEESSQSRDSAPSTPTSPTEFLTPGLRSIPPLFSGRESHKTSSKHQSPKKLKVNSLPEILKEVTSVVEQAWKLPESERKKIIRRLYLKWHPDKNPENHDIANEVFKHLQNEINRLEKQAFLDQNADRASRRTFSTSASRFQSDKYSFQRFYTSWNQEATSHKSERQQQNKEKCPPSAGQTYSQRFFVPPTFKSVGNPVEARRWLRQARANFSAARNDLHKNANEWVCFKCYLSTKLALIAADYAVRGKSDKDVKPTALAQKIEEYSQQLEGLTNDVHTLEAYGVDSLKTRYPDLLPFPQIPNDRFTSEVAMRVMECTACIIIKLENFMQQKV
UniProt Q9Y4I1: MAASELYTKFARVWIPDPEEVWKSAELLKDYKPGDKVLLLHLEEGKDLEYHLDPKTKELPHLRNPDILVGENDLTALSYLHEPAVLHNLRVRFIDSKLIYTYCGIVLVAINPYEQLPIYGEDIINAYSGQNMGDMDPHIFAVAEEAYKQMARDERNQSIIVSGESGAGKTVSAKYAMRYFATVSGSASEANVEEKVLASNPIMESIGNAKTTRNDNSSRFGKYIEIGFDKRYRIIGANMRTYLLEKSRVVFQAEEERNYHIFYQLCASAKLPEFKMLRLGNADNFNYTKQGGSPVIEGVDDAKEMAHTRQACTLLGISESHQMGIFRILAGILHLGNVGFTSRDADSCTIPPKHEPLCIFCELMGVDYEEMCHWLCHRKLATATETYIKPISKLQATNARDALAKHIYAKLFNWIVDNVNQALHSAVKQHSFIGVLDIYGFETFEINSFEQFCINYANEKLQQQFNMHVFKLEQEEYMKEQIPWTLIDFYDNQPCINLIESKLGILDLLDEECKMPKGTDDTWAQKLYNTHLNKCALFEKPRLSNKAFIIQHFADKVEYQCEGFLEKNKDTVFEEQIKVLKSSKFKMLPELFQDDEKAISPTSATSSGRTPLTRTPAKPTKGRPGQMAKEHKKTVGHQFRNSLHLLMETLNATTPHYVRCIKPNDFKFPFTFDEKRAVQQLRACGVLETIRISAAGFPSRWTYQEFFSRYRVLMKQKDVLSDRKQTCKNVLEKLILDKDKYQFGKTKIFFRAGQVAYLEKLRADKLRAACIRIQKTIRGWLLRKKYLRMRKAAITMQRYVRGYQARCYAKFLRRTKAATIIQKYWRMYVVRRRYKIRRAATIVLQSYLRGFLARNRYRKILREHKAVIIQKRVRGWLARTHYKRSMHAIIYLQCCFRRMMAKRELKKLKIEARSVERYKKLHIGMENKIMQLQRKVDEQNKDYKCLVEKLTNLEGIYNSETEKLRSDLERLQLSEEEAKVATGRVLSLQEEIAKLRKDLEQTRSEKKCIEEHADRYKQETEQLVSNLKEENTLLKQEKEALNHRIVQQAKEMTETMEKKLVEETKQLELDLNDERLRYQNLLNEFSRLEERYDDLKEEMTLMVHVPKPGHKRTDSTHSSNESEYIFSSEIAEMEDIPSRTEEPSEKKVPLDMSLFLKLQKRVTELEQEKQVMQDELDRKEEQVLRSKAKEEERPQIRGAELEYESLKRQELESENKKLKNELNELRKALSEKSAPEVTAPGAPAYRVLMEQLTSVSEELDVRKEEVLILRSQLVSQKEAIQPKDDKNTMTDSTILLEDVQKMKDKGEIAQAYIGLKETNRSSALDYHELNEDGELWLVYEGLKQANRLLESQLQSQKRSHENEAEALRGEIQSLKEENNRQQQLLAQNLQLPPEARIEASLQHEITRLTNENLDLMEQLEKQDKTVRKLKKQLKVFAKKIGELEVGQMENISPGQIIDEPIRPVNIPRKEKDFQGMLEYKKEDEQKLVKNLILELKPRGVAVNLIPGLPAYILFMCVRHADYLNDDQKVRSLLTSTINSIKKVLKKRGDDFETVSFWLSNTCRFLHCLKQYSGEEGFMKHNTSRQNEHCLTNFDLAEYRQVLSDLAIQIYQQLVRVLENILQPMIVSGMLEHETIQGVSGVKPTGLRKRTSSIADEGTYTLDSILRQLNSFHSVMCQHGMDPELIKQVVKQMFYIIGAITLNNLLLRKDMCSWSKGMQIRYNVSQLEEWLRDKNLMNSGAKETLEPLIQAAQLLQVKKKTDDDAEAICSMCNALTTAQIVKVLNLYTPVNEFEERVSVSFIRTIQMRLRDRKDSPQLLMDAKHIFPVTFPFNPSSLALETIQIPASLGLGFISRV

[3] = target: plectin (mouse cerebellum) (mouse (endogenous in cerebellum)) (UniProt Q9QXS1); test: co-IP; plectin IP (anti-plectin antibody on Dynabeads, IgG as control) from WT mouse cerebellum lysate (5 mM EDTA, 0.1% Triton X-100 in PBS), overnight at 4°C; blot with anti-sacsin antibody

| Substance | binding [1] | also measured |
| --- | --- | --- |
| myosin Va (from UniProt Q9Y4I1 1-1855) | binds | – |
| plectin (from UniProt Q15149 1-4684) | binds | – |
| sacsin (from UniProt Q9NZJ4 1-4579) | – | binding [2]: binds |
| sacsin (mouse cerebellum) (from UniProt Q9JLC8 1-4582) | – | binding [3]: binds |

— paper PMC10371240
